The values below come from PubChem BioAssay AID2685 (National Center for Advancing Translational Sciences (NCATS), 2010).

By AC50 is commonly meant the concentration at which the activity in the assay is half-maximal. Higher therefore signals activity only at high concentration.

The experiment in a line: qHTS Assay for Lipid Storage Modulators in Drosophila S3 Cells.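 On cell number change: cells counted by Cell Tracker Red CMTPX staining in the red channel.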 The conditions noted are these: BODIPY lipid droplet fluorescence, 18-24 h; for cell number change: measured here: cell count max response, cells fed with added oleic acid. The method, boiled down: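 Drosophila S3 cells got compounds at several concentrations plus oleic acid (400 uM solution). Laser-scanning cytometry with 488 nm excitation read lipid droplets at 500-530 nm and cells at 575-640 nm. Percent activity was relative to 20 uM Triacsin C.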
(In general: In qHTS, concentration-response curves come from the screen itself.)

[1] abbreviates: measured here: lipid fluorescence (Fed channel) AC50, cells fed with added oleic acid.
[2] abbreviates: measured here: cell number channel AC50, cells fed with added oleic acid.

The other results are listed elsewhere or left out. Shown are side measurements of this screen, not its main read-out; they come without a call. Most of these compounds were active or inconclusive in the main read-out, so they are no random draw. Potencies come from curve fits of mixed quality, noted in brackets.

Consider `COc1ccc2c(=O)c(C(=O)NCCc3ccccc3)c[nH]c2c1`, for which the cell number change was -4.19%.

On to `CCNc1nc2nc3ccc(C)cn3c(=O)c2cc1C(=O)NCC1CCCO1` (stereo not drawn), for which the cell number change was determined as 17%. For the same compound, the AC50 under setting [1] is 0.58 µM [rising, single point].

Consider `Cc1ccc(C)c(S(=O)(=O)NCc2ccc(C(=O)N3CCCCC3C)cc2)c1` (stereo not drawn), for which the AC50 under setting [2] is 6.51 µM [falling, single point] and the AC50 under setting [1] was 0.0291 µM [rising, full curve, poor fit].

As to `O=c1c(-c2ccc(Cl)cc2)coc2c(CN3CCOCC3)c(O)ccc12`, the cell number change was -24.2%. Under setting [1], the AC50 was 29.1 µM [rising, single point].

In the case of `O=C(OCC(=O)N1CCc2ccccc21)c1ccc[n+]([O-])c1`, the cell number change was -30.8%. Besides, the AC50 under setting [2] is 0.0411 µM [falling, full curve]. Under setting [1], the AC50 was 0.58 µM [falling, single point].

Regarding `Clc1cccc(CN2CCc3c([nH]c4ccccc34)C2)c1Cl`, the cell number change is -48.4%. Besides, under setting [2], the AC50 is 32.6 µM [falling, partial curve]. Besides, the AC50 under setting [1] is 29.1 µM [falling, single point].

With `Cn1c2c(c(=O)n(C)c1=O)C(c1cccc([N+](=O)[O-])c1)Nc1ccccc1O2` (stereo not drawn), the cell number change was 15.7%. In addition, under setting [1], the AC50 was 1.46 µM [rising, full curve].

`COc1cccc(OC)c1C(=O)NC(=S)Nc1ccc2c(c1)C(=O)N(C)C2=O`: the cell number change was determined as 500%. In addition, the AC50 under setting [2] was 6.51 µM [falling, single point]. Also, the AC50 under setting [1] is 0.0517 µM [falling, full curve, poor fit].

As for `COc1ccc(Cl)cc1NC(=O)CN(C)C(=O)CCCc1c[nH]c2ccccc12`, the cell number change was -46.4%. The AC50 under setting [2] was 29.1 µM [falling, single point].

Consider `O=C(O)c1cccc(NC(=O)c2cc(NC(=O)c3ccccc3)cc(NC(=O)c3ccccc3)c2)c1`, for which the cell number change is -13.2%. Further, the AC50 under setting [2] is 0.0517 µM [falling, full curve, poor fit].

For `C=C(C(=O)Nc1ccccc1)c1ccc(C)cc1`, the cell number change is -28.6%.

As to `O=C(O)c1ccccc1Cc1nc2cc(Cl)ccc2c(=O)[nH]1`, the cell number change is -43.3%.

For the compound `Nc1cccc(CCc2nc3ccccc3[nH]2)c1`, the cell number change was determined as 17.9%. Also, the half-maximal activity concentration (AC50) under setting [1] is 6.51 µM [rising, single point].

As for `Cc1ccc(NC(=O)CN(C)C(=O)Cc2ccc3c(c2)CCC3)cc1`, the cell number change turned out to be 70.3%. Besides, the AC50 under setting [2] was 29.1 µM [rising, single point].

Consider `S=C(c1ccc(-c2ccc(Br)cc2)o1)N1CCCCC1`, for which the cell number change is 16.6%. Further, under setting [1], the AC50 was 8.2 µM [rising, partial curve].

In the case of `Cc1cccc(C)c1NC(=S)NCCCN1CCCC1=O`, the AC50 under setting [1] is 0.517 µM [falling, full curve].

On to `CCN=c1scc(-c2ccc3c(c2)NC(=O)CO3)n1N=C1CCCC1`, for which the cell number change is -18.7%. In addition, the AC50 under setting [1] is 29.1 µM [falling, single point].
